According to paper PMC12643520:
No constants are given. Whether binding was seen depends on the method and setting. Binding seen in cells or lysates may run through a third protein. Some entries that bind do so weakly or less than the wild type.

By UniProt entry, the sequences of proteins in these tests, tags left out.
UniProt Q9NYV4: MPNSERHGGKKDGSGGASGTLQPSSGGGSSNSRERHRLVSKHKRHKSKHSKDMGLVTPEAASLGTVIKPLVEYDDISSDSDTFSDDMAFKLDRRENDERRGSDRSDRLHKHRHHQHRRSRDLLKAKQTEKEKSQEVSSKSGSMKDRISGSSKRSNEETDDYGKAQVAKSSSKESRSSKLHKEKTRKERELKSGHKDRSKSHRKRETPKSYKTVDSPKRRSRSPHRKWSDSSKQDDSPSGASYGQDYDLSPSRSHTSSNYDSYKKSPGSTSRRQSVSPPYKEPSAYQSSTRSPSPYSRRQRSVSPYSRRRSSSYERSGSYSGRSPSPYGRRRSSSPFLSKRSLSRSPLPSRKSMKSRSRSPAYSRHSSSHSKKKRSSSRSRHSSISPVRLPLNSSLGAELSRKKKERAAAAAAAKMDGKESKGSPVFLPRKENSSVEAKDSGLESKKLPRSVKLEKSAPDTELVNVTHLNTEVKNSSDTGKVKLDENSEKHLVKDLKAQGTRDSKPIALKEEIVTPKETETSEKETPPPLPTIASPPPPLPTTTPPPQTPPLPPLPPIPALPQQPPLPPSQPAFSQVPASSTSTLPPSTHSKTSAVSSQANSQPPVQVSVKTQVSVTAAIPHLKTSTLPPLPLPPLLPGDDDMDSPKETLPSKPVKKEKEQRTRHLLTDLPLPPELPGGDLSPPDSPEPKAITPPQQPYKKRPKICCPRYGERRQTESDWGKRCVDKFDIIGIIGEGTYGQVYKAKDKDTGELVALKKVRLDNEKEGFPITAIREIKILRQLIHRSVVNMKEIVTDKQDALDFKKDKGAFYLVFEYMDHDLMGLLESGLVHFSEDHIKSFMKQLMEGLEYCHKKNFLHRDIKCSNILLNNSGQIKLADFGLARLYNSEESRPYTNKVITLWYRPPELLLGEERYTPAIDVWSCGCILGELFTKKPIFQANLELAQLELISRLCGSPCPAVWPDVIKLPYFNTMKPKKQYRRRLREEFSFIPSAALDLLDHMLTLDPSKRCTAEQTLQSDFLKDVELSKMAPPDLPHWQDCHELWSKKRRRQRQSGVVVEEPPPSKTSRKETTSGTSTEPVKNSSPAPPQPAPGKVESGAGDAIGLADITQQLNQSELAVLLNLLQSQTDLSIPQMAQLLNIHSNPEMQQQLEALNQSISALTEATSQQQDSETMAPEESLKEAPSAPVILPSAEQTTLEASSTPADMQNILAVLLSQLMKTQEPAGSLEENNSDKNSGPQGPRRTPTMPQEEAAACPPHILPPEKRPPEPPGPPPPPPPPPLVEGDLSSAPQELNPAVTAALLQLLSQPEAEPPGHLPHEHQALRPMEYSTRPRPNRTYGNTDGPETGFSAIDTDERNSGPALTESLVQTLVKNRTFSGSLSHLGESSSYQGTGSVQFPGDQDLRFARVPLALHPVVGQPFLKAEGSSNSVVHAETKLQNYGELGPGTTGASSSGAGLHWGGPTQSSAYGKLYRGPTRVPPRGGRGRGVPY
UniProt P49841: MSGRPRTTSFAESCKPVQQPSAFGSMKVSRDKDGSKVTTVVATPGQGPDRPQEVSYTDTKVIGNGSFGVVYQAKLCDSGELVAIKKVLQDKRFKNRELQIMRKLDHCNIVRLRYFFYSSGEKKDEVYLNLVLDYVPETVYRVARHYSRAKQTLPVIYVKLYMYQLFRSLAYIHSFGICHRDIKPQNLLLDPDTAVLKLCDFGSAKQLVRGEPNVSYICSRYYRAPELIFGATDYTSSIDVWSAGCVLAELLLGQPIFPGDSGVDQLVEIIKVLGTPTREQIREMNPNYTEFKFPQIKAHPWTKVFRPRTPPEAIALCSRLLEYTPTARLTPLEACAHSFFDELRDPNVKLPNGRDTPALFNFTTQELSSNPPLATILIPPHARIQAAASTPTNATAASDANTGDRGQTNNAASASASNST

Legend:
FLAG-tagged CDK12 [1] = biological target: FLAG-tagged CDK12 (UniProt Q9NYV4); assay: co-IP; U251 cells transfected with FLAG-CDK12; lysates 24 h after transfection; immunoprecipitation with anti-FLAG antibody; Western blot with anti-FLAG or anti-GSK3β
FLAG-tagged CDK12 [2] = biological target: FLAG-tagged CDK12 (UniProt Q9NYV4); assay: co-IP; HEK293T cells transfected with HA-GSK3β alone or with HA-GSK3β and FLAG-CDK12; lysates 24 h after transfection; immunoprecipitation with anti-FLAG antibody; Western blot with anti-HA or anti-FLAG

| Substance | binding (FLAG-tagged CDK12 [1]) | binding (FLAG-tagged CDK12 [2]) |
| --- | --- | --- |
| endogenous GSK3β (from UniProt P49841 1-420) | binds | – |
| HA-tagged GSK3β (from UniProt P49841 1-420) | – | binds |
